Results as given in PubChem BioAssay AID720504 (National Center for Advancing Translational Sciences (NCATS), 2013).
The whole screen tested about 360,000 compounds, of which about 10,000 (2.8%) were called active. This list was built around the results that the source calls inconclusive (neither active nor inactive); the mix of calls is not that of the screen. The call rests on the fitted dose curve; in most records, active means well fitted inhibition curve with a large enough effect; inconclusive means small, poorly fitted or top-dose-only effect; inactive means flat fitted curve, though single readings scatter. A potency beside an inconclusive call is a rough fit, not a confirmed value.

By UniProt entry, the sequences of proteins in these tests, tags left out.
UniProt P53350, whole entry, looked up: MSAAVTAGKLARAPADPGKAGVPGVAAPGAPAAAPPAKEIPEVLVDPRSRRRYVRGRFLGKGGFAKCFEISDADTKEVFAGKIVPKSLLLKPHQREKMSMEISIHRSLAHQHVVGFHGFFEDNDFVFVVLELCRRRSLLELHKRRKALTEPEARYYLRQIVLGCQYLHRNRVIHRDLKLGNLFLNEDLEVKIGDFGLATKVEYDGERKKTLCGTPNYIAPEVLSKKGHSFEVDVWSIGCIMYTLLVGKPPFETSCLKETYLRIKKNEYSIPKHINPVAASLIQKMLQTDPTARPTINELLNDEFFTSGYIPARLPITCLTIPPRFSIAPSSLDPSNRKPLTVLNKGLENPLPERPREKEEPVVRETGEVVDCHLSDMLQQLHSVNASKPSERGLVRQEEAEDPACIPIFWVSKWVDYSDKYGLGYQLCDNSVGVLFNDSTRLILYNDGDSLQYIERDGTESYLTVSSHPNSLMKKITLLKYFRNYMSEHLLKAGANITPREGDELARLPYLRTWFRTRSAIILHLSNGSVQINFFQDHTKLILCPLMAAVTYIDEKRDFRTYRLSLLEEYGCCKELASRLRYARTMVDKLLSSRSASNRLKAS

target: Serine/threonine-protein kinase PLK1 (Homo sapiens) (UniProt P53350); assay: qHTS for Inhibitors of PLK1-PDB (polo-like kinase 1 - polo-box domain): Primary Screen; conditions: Plk1 PBD binding of FITC phosphopeptide, fluorescence polarization; further: nearly all actives have a fitted effect of over 65% in size; on max response, negative = inhibition: series mostly up to about 57 µM
On the % scale 0 is the no-effect control and ±100 the full control effect; potency means the concentration at half of the fitted maximal effect.

Compound | max response, negative = inhibition | Potency
CN1CCN(C(=O)C(Cc2ccccc2)NS(=O)(=O)c2ccc3c(c2)CCC(=O)N3)CC1 (configuration not stated) | inconclusive: -34.1% [inhibitor] | –
O=C(Nc1cccc(C(=O)O)c1)/C(=C\c1ccc(F)cc1)NC(=O)c1ccco1 | inactive: -1.38% | –
CC(C)(C)c1ccc(CC(=O)N2CCC2(C)C(=O)Nc2cccc3c2CCCC3)cc1 (configuration not stated) | inactive: -3.44% | –
NC(=O)CNC(=O)[C@@H]1CC2(CC(c3cccc(Br)c3)=NO2)CN1C(=O)c1ccc(Br)cc1 (some centres not stated) | inconclusive: -30% [inhibitor] | –
CCOn1c(=O)c(-c2ccc(Cl)cc2)[n+]([O-])c2ccccc21 | – | active: 21.2 µM
Cc1ccc(C2C3=C(CCCC3=O)Nc3[nH]c(=S)[nH]c(=O)c32)cc1 (configuration not stated) | – | inconclusive: 23.8 µM [inhibitor, partial curve]
Cc1cc(Br)ccc1OCCN1CCCC1 | inactive: -12.3% | –
CCOc1ccc(-n2c(N)c(C(=O)NCc3cccnc3)sc2=S)cc1 | – | active: 26.7 µM
CCC(C)n1c(=S)[nH]c2c(sc3ccc([N+](=O)[O-])cc32)c1=O (configuration not stated) | – | inconclusive: 29.9 µM [inhibitor, partial curve]
CC1CCCN(C2=C(NS(=O)(=O)c3ccc(Br)cc3)C(=O)c3ccccc3C2=O)C1 (configuration not stated) | – | inconclusive: 67 µM [inhibitor, partial curve]
CSc1ccc(C2N=C(c3ccccc3)NO2)cc1 (configuration not stated) | inactive: -16.5% | –
Cc1c(C(=O)N2CCC(C(N)=O)CC2)sc(N)c1C#N | – | inconclusive: 37.7 µM [inhibitor, single point]
O=C(O)c1ccc2ncsc2c1 | – | inconclusive: 26.7 µM [inhibitor, partial curve]
CCCN(CC(=O)Nc1ccccc1C)C(=O)CCl | – | inconclusive: 15 µM [inhibitor, partial curve]
Cc1ccc(F)cc1CNC(=O)C1CCC(=O)N(CC2CCCCC2)C1 (configuration not stated) | inconclusive: -17.9% [inhibitor] | –
O=C(CCC1N=C2c3ccccc3N=C(SCC(=O)NCc3ccco3)N2C1=O)NCc1ccco1 (configuration not stated) | – | inconclusive: 29.9 µM [inhibitor, partial curve]
Cc1ccc(N2CCN(C(=S)c3ccc(-c4ccccc4[N+](=O)[O-])o3)CC2)cc1 | – | active: 9.47 µM
O=c1c2ccccc2sc2nc(C3CCCCC3)n(Cc3ccco3)c(=O)c12 | – | inconclusive: 42.3 µM [inhibitor, partial curve]
NC(=O)CSc1nnc(Cc2ccc3c(c2)OCO3)n1C1CCCCC1 | – | active: 26.7 µM
N#C/C(=C\c1c[nH]c2ccccc12)C(=O)NC1CC1 | inactive: -4.15% | –
COc1ccc(Nc2nc3c(C)cccc3cc2C#N)c(OC)c1 | inactive: 7.11% | –
CCOC(=O)c1sc2ccccc2c1OC(=O)c1ccc(C)cc1 | – | inconclusive: 21.2 µM [inhibitor, single point]
COc1cccc(Nc2nc(-c3ccc4c(c3)OCCO4)cs2)c1 | – | inconclusive: 29.9 µM [inhibitor, partial curve]
CCc1ccc(S(=O)(=O)Nc2ccccn2)cc1 | – | inconclusive: 26.7 µM [inhibitor, single point]

Compound | max response, negative = inhibition | Potency
COc1cc2c3nnc(-c4ccc(F)cc4)c-3cn(Cc3cccc(C)c3)c2cc1OC | – | inconclusive: 26.7 µM [inhibitor, partial curve]
CC(Cc1c[nH]c2ccccc12)C(=O)NCc1ccco1 (configuration not stated) | – | inconclusive: 37.7 µM [inhibitor, partial curve]
S=c1[nH]nc(-c2ccc3ccccc3n2)o1 | inactive: -12.3% | –
CC(C)NC(=O)CSc1nc(N)c(-c2ccccc2)c(=O)[nH]1 | – | inconclusive: 21.2 µM [inhibitor, partial curve]
Cc1cc(O)c(/C=N/OCc2ccc(Cl)cc2Cl)c(=O)o1 | – | inconclusive: 23.8 µM [inhibitor, partial curve]
CCNC(=O)C1(C)CCN1CCC(=O)c1ccc(Br)cc1 (configuration not stated) | – | inconclusive: 13.4 µM [inhibitor, partial curve]
c1ccc(-c2nnc(-c3ccccn3)s2)nc1 | – | active: 21.2 µM
CCCn1c(-c2ccncc2)n[nH]c1=S | inactive: -0.313% | –
Nc1c(C(=O)c2ccccc2)sc2snc(SCC(=O)c3ccccc3)c12 | inconclusive: -33.2% [inhibitor] | –
Cc1ccc(SCc2[nH]nc3c2C2(C(=O)N(C)c4ccccc42)C(C#N)=C(N)O3)cc1 (configuration not stated) | – | inconclusive: 15 µM [inhibitor, partial curve]
CCOCc1nnc(NC(=O)C2CC(=O)N(CCc3ccc(F)cc3)C2)s1 (configuration not stated) | – | inconclusive: 26.7 µM [inhibitor, single point]
COc1ccc(-c2csc(NC(=O)CSCC(=O)Nc3cc(C)on3)n2)cc1OC | inconclusive: -33.7% [inhibitor] | –
O=S1(=O)c2ccc(Br)cc2N2CCC[C@@H]2CN1Cc1ccc(Cl)cc1 | – | inconclusive: 21.2 µM [inhibitor, single point]
Cc1ccc(Cn2ncc(Cl)c(Cl)c2=O)cc1 | – | inconclusive: 26.7 µM [inhibitor, partial curve]
N#Cc1ccsc1NC(=O)CCS(=O)(=O)c1ccccc1 | – | inconclusive: 29.9 µM [inhibitor, partial curve]
Cc1cccn2c(=O)c3cc(S(=O)(=O)c4ccccc4)c(=N)n(Cc4ccco4)c3nc12 | inactive: -4.2% | –
CCN(CC)S(=O)(=O)c1ccc(N2CCOCC2)c(NC(=O)c2sccc2C)c1 | – | inconclusive: 29.9 µM [inhibitor, single point]
Cn1cccc1C(C#N)c1cccc(F)c1C#N (configuration not stated) | inactive: 1.85% | –
O=C1c2ccccc2C(=O)N1CCSc1ncn[nH]1 | inactive: -4.11% | –
CC1(C)SCC(C(=O)O)NC1=O (configuration not stated) | – | active: 21.2 µM
CCNC(=O)CC1C(=O)N(c2ccc(F)cc2)C(=O)N1Cc1ccccn1 (configuration not stated) | – | active: 26.7 µM
CC(=O)c1cc(-c2ccccc2)[nH]c1N1CCCC1 | – | inconclusive: 26.7 µM [inhibitor, single point]
CC(=O)Nc1ccc(NS(=O)(=O)c2c(Cl)cccc2Cl)cc1 | – | active: 26.7 µM

Record cards, from the list above:
O=S1(=O)c2ccc(Br)cc2N2CCC[C@@H]2CN1Cc1ccc(Cl)cc1 is entered as Potency: inconclusive: 21.2 µM [inhibitor, single point]
CCOCc1nnc(NC(=O)C2CC(=O)N(CCc3ccc(F)cc3)C2)s1 (configuration not stated) is entered as Potency: inconclusive: 26.7 µM [inhibitor, single point]
CCCn1c(-c2ccncc2)n[nH]c1=S is entered as max response, negative = inhibition: inactive: -0.313%
CCNC(=O)CC1C(=O)N(c2ccc(F)cc2)C(=O)N1Cc1ccccn1 (configuration not stated) is entered as Potency: active: 26.7 µM
